Results are given in words; binding and its absence hold for the method and conditions named. In cells and extracts the contact can be indirect. Some entries that bind do so weakly or less than the wild type.

Chains of the proteins cited; added tags and fusions are not shown.
UniProt O60563: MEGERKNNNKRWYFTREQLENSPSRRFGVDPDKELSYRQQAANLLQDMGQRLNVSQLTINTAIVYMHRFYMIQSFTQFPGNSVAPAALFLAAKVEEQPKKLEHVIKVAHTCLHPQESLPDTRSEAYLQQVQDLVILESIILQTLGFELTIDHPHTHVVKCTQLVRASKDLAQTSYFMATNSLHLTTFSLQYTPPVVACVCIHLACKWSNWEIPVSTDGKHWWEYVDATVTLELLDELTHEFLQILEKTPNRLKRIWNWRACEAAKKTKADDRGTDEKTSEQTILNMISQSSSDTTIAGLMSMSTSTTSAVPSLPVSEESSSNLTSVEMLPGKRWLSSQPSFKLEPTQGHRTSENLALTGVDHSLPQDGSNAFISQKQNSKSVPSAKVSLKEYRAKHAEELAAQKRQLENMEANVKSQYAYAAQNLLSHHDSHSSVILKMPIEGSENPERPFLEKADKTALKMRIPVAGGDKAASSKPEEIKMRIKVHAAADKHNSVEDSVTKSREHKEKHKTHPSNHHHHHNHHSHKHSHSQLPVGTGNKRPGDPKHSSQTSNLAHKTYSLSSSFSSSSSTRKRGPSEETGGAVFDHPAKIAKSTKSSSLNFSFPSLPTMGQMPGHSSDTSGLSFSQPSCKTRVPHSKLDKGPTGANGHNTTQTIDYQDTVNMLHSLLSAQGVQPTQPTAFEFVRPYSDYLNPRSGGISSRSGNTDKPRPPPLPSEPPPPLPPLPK
UniProt O94992: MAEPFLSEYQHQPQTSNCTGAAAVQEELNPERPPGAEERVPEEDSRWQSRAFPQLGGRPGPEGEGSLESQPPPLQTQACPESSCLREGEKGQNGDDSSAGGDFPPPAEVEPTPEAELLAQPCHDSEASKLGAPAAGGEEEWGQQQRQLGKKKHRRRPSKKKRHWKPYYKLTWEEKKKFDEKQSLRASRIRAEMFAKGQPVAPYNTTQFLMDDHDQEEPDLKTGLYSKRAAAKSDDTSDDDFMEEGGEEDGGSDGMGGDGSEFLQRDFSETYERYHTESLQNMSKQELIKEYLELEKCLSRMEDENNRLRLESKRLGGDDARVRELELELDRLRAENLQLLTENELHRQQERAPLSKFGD

The target of the assay is HA-tagged cyclin T1 (HA-CycT1) (UniProt O60563). The assay is described as follows: co-IP; HA-CycT1 immunoprecipitated from extracts of HeLa G3H cells transiently expressing wild-type or mutant (C22G, K41A) Tat-FL; co-precipitation of endogenous HEXIM1 and Tat-FL proteins monitored.

Take “HEXIM1, endogenous (from UniProt O94992 1-359)”: the binding result is reported as “binds”.

Source of the values: publication PMC2954905, “Controlling Cellular P-TEFb Activity by the HIV-1 Transcriptional Transactivator Tat”.
